Results: PubChem BioAssay AID1671190 (National Center for Advancing Translational Sciences (NCATS), 2021)
The whole screen tested about 580,000 compounds, of which about 6,100 (1.1%) were called active. The inconclusive results got no clear call from the source; some entries with a clear call stand among them for comparison. Calls follow the shape of the dose curve; as a rule, active = well fitted inhibition curve with a large enough effect; inconclusive = small, poorly fitted or top-dose-only effect, or another doubt; inactive = no such curve, though single readings can be large or run the other way. A potency beside an inconclusive call is a rough fit, not a confirmed value.
% is scaled to controls: 0 for no effect and ±100 for the full control effect; potency is read from the fitted curve at half-maximal effect.

Amino acid sequences for entries named in this document (tags omitted).
UniProt P18054, whole entry, looked up: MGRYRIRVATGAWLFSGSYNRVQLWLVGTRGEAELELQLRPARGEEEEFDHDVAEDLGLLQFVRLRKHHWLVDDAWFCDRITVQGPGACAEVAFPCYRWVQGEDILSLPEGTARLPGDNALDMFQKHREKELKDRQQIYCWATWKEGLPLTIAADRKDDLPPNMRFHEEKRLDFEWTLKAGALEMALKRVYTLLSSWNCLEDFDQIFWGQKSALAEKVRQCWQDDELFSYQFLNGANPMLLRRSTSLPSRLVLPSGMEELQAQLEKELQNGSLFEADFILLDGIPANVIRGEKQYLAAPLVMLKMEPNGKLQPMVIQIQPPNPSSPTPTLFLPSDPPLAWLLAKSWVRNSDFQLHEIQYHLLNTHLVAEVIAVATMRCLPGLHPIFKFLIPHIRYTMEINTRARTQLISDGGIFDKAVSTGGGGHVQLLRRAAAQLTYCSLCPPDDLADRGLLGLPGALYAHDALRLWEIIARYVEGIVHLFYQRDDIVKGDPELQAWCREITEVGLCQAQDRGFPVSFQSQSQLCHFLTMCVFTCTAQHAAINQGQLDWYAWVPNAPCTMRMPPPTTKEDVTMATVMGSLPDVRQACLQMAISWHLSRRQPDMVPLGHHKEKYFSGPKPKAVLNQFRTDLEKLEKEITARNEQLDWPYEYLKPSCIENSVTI

What follows are compounds tested against Polyunsaturated fatty acid lipoxygenase ALOX12 (Homo sapiens) (UniProt P18054) (assay: Primary qHTS assay for inhibitors of human arachidonate 12S-lipoxygenase (ALOX12): Round 2). Details: purified 12hLO, xylenol orange hydroperoxide absorbance; activity change, negative = inhibition: at 108 µM (top of the series) unless noted.
In short: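 Hydroperoxide product was detected by ferrous iron/xylenol orange as the 573 to 405 nm absorbance ratio. Arachidonic acid at 40 uM (final) was turned over for 30 min at room temperature by 150 nM human 12hLO, pH 7.0 Hepes buffer, after 15 min compound preincubation.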
With Cc1cc(C)c2nc(NNC(=O)c3ccc(S(=O)(=O)N4CCCCC4)cc3)sc2c1 the Potency was active: 10 µM.
Cc1nc(C)c(C(=O)N2CCC3(CC2)CN(c2ncccn2)CC3CO)s1 (centres undefined) was tested, and the “activity change, negative = inhibition” value was inactive: 33.5%.
In the case of O=C1Nc2ccccc2/C1=C/C(=O)c1cccs1, the Potency is reported as inconclusive: 15.8 µM [inhibitor, partial curve, poor fit].
With CC(NC(=O)c1cc2cc(Br)cc(Br)c2o1)C1CC2CCC1C2 (centres undefined) the Potency was inconclusive: 56.2 µM [inhibitor, partial curve, poor fit].
With Cc1cc(C)nc(/N=C2/NC(=O)CS2)n1 the Potency was inconclusive: 3.16 µM [inhibitor, full curve, poor fit].
In the case of COc1ccc(CCn2c(O)cc3nn(-c4nc5ccccc5s4)c(=O)c-3c2C)cc1, the Potency is reported as inconclusive: 35.5 µM [inhibitor, partial curve, poor fit].
With Cc1cc(C)c(O)c(-c2cc(C(=O)Nc3ccc(S(=O)(=O)N4CCOCC4)cc3)[nH]n2)c1 the “activity change, negative = inhibition” value was inactive: 18%.
CC(=O)Nc1ccc(S(=O)(=O)NCC(=O)NNC(=O)c2csc(N3CCOCC3)n2)cc1 was tested, and the “activity change, negative = inhibition” value was inactive: 4.69%.
Fc1ccc(CN2CCOC[C@H]2c2ncc(-c3ccc(F)cc3F)[nH]2)cc1 was tested, and the Potency was inconclusive: 28.2 µM [inhibitor, full curve].
With CCOC(=O)C1=C(C)Nc2nnnn2C1c1c[nH]c2ccccc12 (centres undefined) the “activity change, negative = inhibition” value was inactive: -20.7%.
With CCCCCCn1c(=O)n2n(c1=O)[C@@H]1CN(S(=O)(=O)c3ccc(C)cc3)C[C@]1(O)[C@@H](OC(=O)NC1CCCC1)C2 the Potency was inconclusive: 44.7 µM [inhibitor, partial curve, poor fit].
With Cc1cccc(-c2nnn3c2nc(NCCc2ccc(S(N)(=O)=O)cc2)c2ccccc23)c1 the Potency was inconclusive: 100 µM [inhibitor, partial curve, poor fit].
CN(C)c1ccc(CN[C@H]2C[C@H]3C(=O)NC[C@@H](CCC(=O)N4CCCC4)N3C2)cc1 was tested, and the Potency was inconclusive: 25.1 µM [inhibitor, partial curve, poor fit].
For O=C(NCc1ccncc1)C12CC3CC(CC(C3)C1)C2, the “activity change, negative = inhibition” value was inactive: 39.8%.
For CCC(C)C(=O)Nc1ccc([N+](=O)[O-])cc1OC (centres undefined), the Potency was inconclusive: 56.2 µM [inhibitor, partial curve, poor fit].
With O=C(NCc1ccccc1)C1=C[C@@H](c2coc3ccccc3c2=O)C[C@@H](OCCCCO)O1 the Potency was inconclusive: 100 µM [inhibitor, single point].
In the case of O=C(Nc1ccc2oc(-c3ccccc3)cc(=O)c2c1)c1ccc(F)cc1, the Potency is reported as inconclusive: 200 µM [inhibitor, partial curve, poor fit].
For O=C(O)C(c1c[nH]c2ccc(Br)cc12)N1CCN(Cc2cccs2)CC1 (centres undefined), the Potency was inconclusive: 2.24 µM [inhibitor, full curve, poor fit].
In the case of CSc1nc(-c2ccc(Cl)cc2)nn1S(=O)(=O)c1ccccc1, the Potency is reported as inconclusive: 39.8 µM [inhibitor, partial curve, poor fit].
With O=C(Nc1ccccc1C(F)(F)F)c1ccccc1Cl the “activity change, negative = inhibition” value was inactive: -3.35%.
CC[C@H]1CN(C(=O)NC2CCCCC2)CC[C@H]1CC(=O)Nc1ccccc1 was tested, and the “activity change, negative = inhibition” value was inactive: 23.2% [at 176 µM].
CC(=O)NC1(C(F)(F)F)C(=O)N(Cc2ccccc2)C2=C1C(=O)CC(C)(C)C2 (centres undefined) was tested, and the “activity change, negative = inhibition” value was inactive: 0%.
In the case of Cc1ccc(Cl)c(NC(=O)CSc2cccc[n+]2[O-])c1Cl, the “activity change, negative = inhibition” value is reported as inactive: -1.78%.
For Nc1nc(SCC(=O)Nc2ncc(Cl)cc2Cl)n[nH]1, the Potency was inconclusive: 89.1 µM [inhibitor, partial curve, poor fit].
For COc1ccccc1CNC(=O)c1cccc(N(C)C)c1, the Potency was active: 1.78 µM.
In the case of Cc1cc(Cl)ccc1OCC(=O)N1CCCN(C(=O)COc2ccc(Cl)cc2C)CC1, the Potency is reported as inconclusive: 31.6 µM [inhibitor, partial curve, poor fit].
With COC(=O)c1cccc(-c2nc(C3CC(=O)N(c4ccc(Cl)cc4)C3)no2)c1 (centres undefined) the “activity change, negative = inhibition” value was inactive: 6.26%.
In the case of COc1ccc(N2CCN(C(=O)c3ccc(NS(=O)(=O)c4ccccc4)cc3)CC2)cc1, the Potency is reported as inconclusive: 8.91 µM [inhibitor, partial curve, poor fit].
For Cc1cccc(-n2nc(C)c(CCC(=O)N(C)C(C)C)c2Oc2ccccc2C)c1, the Potency was inconclusive: 79.4 µM [inhibitor, partial curve, poor fit].
For CCSc1ncc(Cl)c(C(=O)N(Cc2ccc(N(C)C)cc2)Cc2ccco2)n1, the Potency was inconclusive: 7.94 µM [inhibitor, full curve].
With CC(=O)N1CCC2(CC1)NC(=O)N(c1ccccc1)N2 the Potency was inconclusive: 35.5 µM [inhibitor, partial curve, poor fit].
With O=C(O)c1ccc(OCCOc2ccccc2)cc1 the Potency was inconclusive: 79.4 µM [inhibitor, partial curve, poor fit].
With CCOC(=O)C1C(c2cccs2)NC(=O)N(C)C1(O)C(F)(F)F (centres undefined) the Potency was inconclusive: 0.158 µM [inhibitor, full curve, poor fit].
For N#Cc1nc(COc2ccc3c(c2)OCO3)oc1NC1CCCCC1, the “activity change, negative = inhibition” value was inactive: 36.9%.
In the case of CC1CCN(C(=O)c2ccc(COc3ccccc3Cl)o2)CC1, the Potency is reported as inconclusive: 141 µM [inhibitor, single point].
For C/C(=N\Nc1nc(N)cc(Cl)n1)c1cccc([N+](=O)[O-])c1, the “activity change, negative = inhibition” value was inactive: 20.1%.
For COc1ccc(N(CCCN2C(=O)c3cccc4cccc(c34)C2=O)C(=O)c2ccncc2)cc1, the Potency was inconclusive: 2.51 µM [inhibitor, full curve, poor fit].
Cc1ccc2nc(-c3ccccn3)oc2c1 was tested, and the “activity change, negative = inhibition” value was inactive: 36.2%.
For NCc1cccc(Oc2ncnc3ccccc23)c1, the activity change, negative = inhibition was inactive: 2.19% [at 12.5 µM].
CCCCC(=O)NC(c1ccc(OC)c(OC)c1)c1c(O)ccc2ccccc12 (centres undefined) was tested, and the Potency was inconclusive: 22.4 µM [inhibitor, partial curve, poor fit].
For COCC(=O)Nc1cccc(C(=O)N(Cc2ccsc2)CC(C)C)c1, the “activity change, negative = inhibition” value was inactive: 1.95%.
For COc1ccc2cc(C)c3nnc(SCC(=O)Nc4cc(OC)c(OC)cc4C(=O)O)n3c2c1, the “activity change, negative = inhibition” value was inactive: -37.8%.
In the case of Cc1cc2c(cc1C)[n+](C)cn2CC(O)COCC1CC=CCC1 (centres undefined), the Potency is reported as inconclusive: 70.8 µM [inhibitor, partial curve, poor fit].
In the case of CC(=O)Nc1ccc(/C=C/C(=O)C23CC4CC(CC(C4)C2)C3)cc1, the Potency is reported as inconclusive: 158 µM [inhibitor, single point].
With Cc1nn(-c2ccc(C(C)C)cc2)c(C)c1[C@@H]1C=C[C@@H](NC(=S)NC2CCCCC2)C1 the Potency was active: 39.8 µM.
COc1ccccc1N1CCN(c2ccnc3cc(Cl)ccc23)CC1 was tested, and the “activity change, negative = inhibition” value was inactive: -9.47%.
CSc1ccc(/C=N/Nc2ccc(F)cc2F)cc1 was tested, and the Potency was active: 1.78 µM.
For COc1ccc(C(=O)NCC2OCCc3ccccc32)c(O)c1 (centres undefined), the Potency was inconclusive: 7.08 µM [inhibitor, full curve, poor fit].
For O=C(CCN1C(=O)/C(=C\c2ccccc2)SC1=S)NNC(=O)c1ccccc1O, the “activity change, negative = inhibition” value was inactive: -0.651%.
Cc1cc(C(=O)OCC(=O)N2CC(C)CC(C)C2)c(C)o1 (centres undefined) was tested, and the Potency was inconclusive: 3.55 µM [inhibitor, full curve, poor fit].
In the case of COc1ccc(CC(=O)NC2CCCc3c2[nH]c2ccccc32)cc1OC (centres undefined), the Potency is reported as inconclusive: 50.1 µM [inhibitor, partial curve, poor fit].
With Cc1c(O)nc(SC2CC(=O)N(c3cc(Cl)cc(Cl)c3)C2=O)[nH]c1=O (centres undefined) the Potency was active: 5.62 µM.
With Cc1nc(N2CCS(=O)CC2)c2c(-c3ccccc3)csc2n1 the Potency was inconclusive: 100 µM [inhibitor, single point].
COc1ccc(C(=O)NC(=S)NC(C)c2ccccc2)cc1 (centres undefined) was tested, and the “activity change, negative = inhibition” value was inactive: -30.2%.
With CC(C)(C)c1ccccc1OCC(=O)Nc1ccccc1C(=O)NCc1cccnc1 the “activity change, negative = inhibition” value was inactive: -3.49%.
With O=C1NC2(CCCN(C(=O)c3ccc(Cl)cc3)C2)Oc2ccccc21 (centres undefined) the Potency was inconclusive: 100 µM [inhibitor, partial curve, poor fit].
In the case of CCCN1C(=O)c2ccc(C(=O)Nc3ccccc3C(=O)O)cc2C1=O, the Potency is reported as inconclusive: 22.4 µM [inhibitor, partial curve, poor fit].
With CN(C)c1nnnn1-c1ccccc1Oc1ncc(C(F)(F)F)cc1Cl the Potency was inconclusive: 89.1 µM [inhibitor, single point].
Cc1ccc(Cl)cc1N1CCN(C(c2ccc(C#N)cc2)c2nnnn2C2CCCC2)CC1 (centres undefined) was tested, and the “activity change, negative = inhibition” value was inactive: -8.72%.
For CN(C)CC1CCCCC1OC(=O)/C=C/c1ccccc1 (centres undefined), the “activity change, negative = inhibition” value was inactive: 0.483%.
In the case of Cc1cc(C)n(-c2ccc(=O)n(CC(=O)Nc3ccc(C(C)(C)C)cc3)n2)n1, the Potency is reported as inconclusive: 2.82 µM [inhibitor, full curve, poor fit].
For O=C(NCc1ccc(F)cc1)c1cc(C2CCCCN2C(=O)CCCc2ccccc2)on1 (centres undefined), the Potency was inconclusive: 100 µM [inhibitor, single point].
In the case of CN(C)S(=O)(=O)c1ccc(Nc2nc(C3CC3)nc3c2nnn3Cc2ccccc2Cl)cc1, the “activity change, negative = inhibition” value is reported as inactive: -5.71%.
In the case of CN(Cc1ccc(F)cc1)C(=O)c1cc(-c2ccncc2)nc2ccccc12, the “activity change, negative = inhibition” value is reported as inactive: 23.9%.
For CCCCNC(=O)c1cc2cc(OC)ccc2[nH]1, the “activity change, negative = inhibition” value was inactive: 0.546%.
CCOc1cc(/C=C2/NC(=O)NC2=O)cc(Br)c1OCc1ccc(C(=O)O)cc1 was tested, and the Potency was inconclusive: 10 µM [inhibitor, full curve].
In the case of Cc1ccc(CCNC(=O)Cn2ncc3c([nH]c4ccc(C)cc43)c2=O)cc1, the Potency is reported as inconclusive: 141 µM [inhibitor, partial curve, poor fit].
For CN(C)CCN(Cc1cc2cc3c(cc2[nH]c1=O)OCO3)C(=S)NCc1ccco1, the Potency was inconclusive: 79.4 µM [inhibitor, partial curve, poor fit].
For CCCc1[nH]n(-c2ccc(F)cc2)c(=O)c1C=Nc1cccc(F)c1, the “activity change, negative = inhibition” value was inactive: 15.1%.
